Results are given in words; binding and its absence hold for the method and conditions named. In cells and extracts the contact can be indirect.

The experiment deals with T1, MKK6, endogenous in hTCEpi cells (human (endogenous in hTCEpi)) (UniProt P52564).
T1 sequence: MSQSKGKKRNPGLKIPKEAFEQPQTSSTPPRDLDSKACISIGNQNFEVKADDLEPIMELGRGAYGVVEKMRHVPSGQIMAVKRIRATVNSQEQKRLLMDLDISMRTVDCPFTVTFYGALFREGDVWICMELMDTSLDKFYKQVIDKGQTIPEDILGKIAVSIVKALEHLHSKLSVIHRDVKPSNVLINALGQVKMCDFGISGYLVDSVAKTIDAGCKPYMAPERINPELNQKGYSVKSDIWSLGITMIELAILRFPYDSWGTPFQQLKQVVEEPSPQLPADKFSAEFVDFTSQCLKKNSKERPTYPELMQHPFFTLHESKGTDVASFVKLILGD
In words: co-IP; hTCEpi cell lysates (untreated or TNF-α 10 ng/ml) incubated with primary antibodies (anti-p38, anti-IKKβ, anti-MKK6), then protein A agarose at 4°C overnight; Western blot. On the technique in general: In western blotting, separated proteins are transferred to a membrane and probed.

B1: IκB kinase β (IKKβ), endogenous in hTCEpi cells (enzyme, UniProt O14920 1-756)
chain: MSWSPSLTTQTCGAWEMKERLGTGGFGNVIRWHNQETGEQIAIKQCRQELSPRNRERWCLEIQIMRRLTHPNVVAARDVPEGMQNLAPNDLPLLAMEYCQGGDLRKYLNQFENCCGLREGAILTLLSDIASALRYLHENRIIHRDLKPENIVLQQGEQRLIHKIIDLGYAKELDQGSLCTSFVGTLQYLAPELLEQQKYTVTVDYWSFGTLAFECITGFRPFLPNWQPVQWHSKVRQKSEVDIVVSEDLNGTVKFSSSLPYPNNLNSVLAERLEKWLQLMLMWHPRQRGTDPTYGPNGCFKALDDILNLKLVHILNMVTGTIHTYPVTEDESLQSLKARIQQDTGIPEEDQELLQEAGLALIPDKPATQCISDGKLNEGHTLDMDLVFLFDNSKITYETQISPRPQPESVSCILQEPKRNLAFFQLRKVWGQVWHSIQTLKEDCNRLQQGQRAAMMNLLRNNSCLSKMKNSMASMSQQLKAKLDFFKTSIQIDLEKYSEQTEFGITSDKLLLAWREMEQAVELCGRENEVKLLVERMMALQTDIVDLQRSPMGRKQGGTLDDLEEQARELYRRLREKPRDQRTEGDSQEMVRLLLQAIQSFEKKVRVIYTQLSKTVVCKQKALELLPKVEEVVSLMNEDEKTVVRLQEKRQKELWNLLKIACSKVRGPVSGSPDSMNASRLSQPGQLMSQPSTASNSLPEPAKKSEELVAEAHNLCTLLENAIQDTVREQDQSFTALDWSWLQTEEEEHSCLEQAS
B1: the binding result is given as “no binding”.

The record behind these values is PMC3022035.
